Article doi:10.1101/358176

Biological target: T1, GFP-tagged dl (dorsal) (Drosophila melanogaster) (UniProt P15330)
T1 sequence: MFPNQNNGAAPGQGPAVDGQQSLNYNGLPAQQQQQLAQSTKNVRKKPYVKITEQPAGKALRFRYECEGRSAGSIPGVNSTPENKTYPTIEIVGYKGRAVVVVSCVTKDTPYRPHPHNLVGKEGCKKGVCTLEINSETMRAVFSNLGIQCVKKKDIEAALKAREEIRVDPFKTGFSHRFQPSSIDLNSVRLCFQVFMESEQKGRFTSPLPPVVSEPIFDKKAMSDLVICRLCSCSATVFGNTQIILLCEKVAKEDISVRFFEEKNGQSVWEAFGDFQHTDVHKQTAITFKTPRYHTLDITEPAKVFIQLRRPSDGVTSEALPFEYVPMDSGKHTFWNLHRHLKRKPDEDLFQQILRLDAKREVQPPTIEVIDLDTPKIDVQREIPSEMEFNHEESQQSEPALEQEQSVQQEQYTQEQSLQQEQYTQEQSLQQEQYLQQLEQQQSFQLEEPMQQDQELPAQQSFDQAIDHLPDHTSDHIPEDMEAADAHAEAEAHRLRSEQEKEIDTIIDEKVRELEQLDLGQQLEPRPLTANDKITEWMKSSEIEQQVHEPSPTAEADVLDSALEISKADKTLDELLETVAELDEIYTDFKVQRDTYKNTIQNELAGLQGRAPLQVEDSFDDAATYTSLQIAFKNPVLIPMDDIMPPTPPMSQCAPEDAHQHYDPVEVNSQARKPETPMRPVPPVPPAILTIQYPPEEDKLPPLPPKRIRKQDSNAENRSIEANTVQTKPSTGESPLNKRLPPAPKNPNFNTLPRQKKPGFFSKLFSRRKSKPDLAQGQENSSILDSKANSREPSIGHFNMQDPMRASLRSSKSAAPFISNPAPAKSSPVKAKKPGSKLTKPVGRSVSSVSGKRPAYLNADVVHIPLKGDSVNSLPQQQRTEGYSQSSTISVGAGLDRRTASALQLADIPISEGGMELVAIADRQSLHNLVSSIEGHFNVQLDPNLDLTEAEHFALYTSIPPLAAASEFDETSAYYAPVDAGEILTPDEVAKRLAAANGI
Experiment: co-IP

V5-tagged gp83 of Kallithea virus
binding: no binding

Results are given in words; binding and its absence hold for the method and conditions named. Binding seen in cells or lysates may run through a third protein. Where a sequence is shown, tags or fusion partners need not be part of it.
